PubChem BioAssay AID720505 | Drosophila RNAi Screening Center, 2013
The screen tested about 20,000 reagents; this is an unselected part of those with a known target gene and a result. Of all reagents, about 2,100 (10%) are marked active. 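Raw plate signals without normalisation; calls rest on control-based scores that were not deposited; replicate 2 separates called from uncalled poorly.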 The numbers tell different reagents against one gene apart. Names joined by + are all predicted targets of the reagent. Not given: the amount of reagent, the time to read-out.

Test: 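Fly regulators or components of the CRAC channel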 (primary screen)
Cell system: Drosophila S2R+ cells
Reagents: long dsRNA against Drosophila genes
Treatment: thapsigargin (2 µM) in calcium-free buffer to empty internal stores, then 2 mM calcium added back
Measurement: 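Fluo-4 signal in 384-well plates read on a FLIPR after thapsigargin (2 µM, calcium-free) store depletion and 2 mM calcium add-back; unnormalised mean endpoint per well; screen run twice, selected wells retested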
Reading the numbers: calcium signal and retest calcium signal: higher = more calcium entry after store depletion
Rule for the call: 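Knock-downs counted as hits when calcium entry dropped relative to STIM1 positive and Rho1 negative controls present on each plate; roughly 1500 genes called, with reductions of differing size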
Calls: active = called as lowering calcium entry; inactive = not called

| target gene | reagent | calcium signal, replicate 1 | calcium signal, replicate 2 | retest calcium signal, replicate 1 | retest calcium signal, replicate 2 | Outcome |
| --- | --- | --- | --- | --- | --- | --- |
| dpr15 | 1 | – | – | – | – | active |
| dpr15 | 2 | 92.1 | 76.4 | – | – | inactive |
| dpr15 | 3 | 67 | 107 | – | – | active |
| CG33475 | 1 | 137 | 187 | – | – | inactive |
| Ziz | 1 | 192 | 89.3 | – | – | inactive |
| Ziz | 2 | 55 | 151 | – | – | active |
| AQP | 1 | 126 | 157 | – | – | inactive |
| mRpL27 | 1 | 84.2 | 180 | – | – | inactive |
| Glut1 | 1 | 105 | 71.2 | – | – | inactive |
| Glut1 | 2 | 99.6 | 122 | – | – | inactive |
| mRpS5 | 1 | 143 | 113 | – | – | inactive |
| CG13300 | 1 | 88.4 | 77.1 | – | – | inactive |
| nec | 1 | 166 | 120 | – | – | inactive |
| Eogt | 1 | 70.2 | 140 | – | – | inactive |
| GATAd | 1 | 64.8 | 57.8 | – | – | active |
| CG3792 | 1 | 182 | 113 | – | – | inactive |
| Spn42Db | 1 | 87.3 | 111 | – | – | inactive |
| Atg16 | 1 | 143 | 100 | – | – | inactive |
| Atg16 | 2 | 158 | 155 | – | – | inactive |
| Atg16 | 3 | 153 | 160 | – | – | inactive |
| ms(3)K81 | 1 | 120 | 82.4 | – | – | inactive |
| CG12991 | 1 | 89 | 111 | – | – | inactive |
| CG13707 | 1 | 95.8 | 78.6 | – | – | inactive |
| lncRNA:CR30009 | 1 | 77.9 | 201 | – | – | inactive |
| nero | 1 | 100 | 133 | – | – | inactive |
| CG4553 | 1 | 249 | 165 | – | – | inactive |
| CG14609 | 1 | 94.5 | 144 | – | – | inactive |
| CG7182 | 1 | 76.2 | 130 | – | – | inactive |
| twit | 1 | 91.4 | 96.8 | – | – | inactive |
| slam | 1 | 64.7 | 178 | – | – | active |

Entries above called active (5):
| target gene | reagent | calcium signal, replicate 1 | calcium signal, replicate 2 | retest calcium signal, replicate 1 | retest calcium signal, replicate 2 | Outcome |
| --- | --- | --- | --- | --- | --- | --- |
| dpr15 | 1 | – | – | – | – | active |
| dpr15 | 3 | 67 | 107 | – | – | active |
| Ziz | 2 | 55 | 151 | – | – | active |
| GATAd | 1 | 64.8 | 57.8 | – | – | active |
| slam | 1 | 64.7 | 178 | – | – | active |

Continued.
| target gene | reagent | calcium signal, replicate 1 | calcium signal, replicate 2 | retest calcium signal, replicate 1 | retest calcium signal, replicate 2 | Outcome |
| --- | --- | --- | --- | --- | --- | --- |
| Etl1 | 1 | 105 | 95.1 | – | – | inactive |
| CCAP | 1 | 103 | 131 | – | – | inactive |
| und | 1 | 104 | 131 | – | – | inactive |
| CG12691 | 1 | 147 | 150 | – | – | inactive |
| Bap55 | 1 | 108 | 91.8 | – | – | inactive |
| sala + CG43355 | 1 | 199 | 102 | 73.6 | 100 | inactive |
| sala + CG43355 | 2 | 161 | 190 | – | – | inactive |
| CG1544 | 1 | 89 | 107 | – | – | inactive |
| geko | 1 | 89.5 | 117 | – | – | inactive |
| geko | 2 | 84.4 | 92.2 | – | – | active |
| CG14015 | 1 | 104 | 86.2 | – | – | inactive |
| PGRP-SC2 | 1 | 148 | 238 | – | – | inactive |
| CG3430 | 1 | 115 | 216 | – | – | inactive |
| CG32983 | 1 | 89.4 | 235 | – | – | inactive |
| CG5445 | 1 | 78.8 | 133 | – | – | inactive |
| CG5445 | 2 | 113 | 118 | – | – | inactive |
| Lsm11 | 1 | 123 | 153 | – | – | inactive |
| Crtp | 1 | 109 | 189 | – | – | inactive |
| Slmap | 1 | 141 | 77 | – | – | inactive |
| Adgf-E | 1 | 102 | 178 | – | – | inactive |
| yellow-d | 1 | 95.2 | 168 | – | – | inactive |
| CG14841 | 1 | 139 | 159 | – | – | inactive |
| CG13287 | 1 | 91.9 | 122 | – | – | inactive |
| side-V | 1 | 160 | 231 | 9531 | 176 | inactive |
| side-V | 2 | 145 | 158 | – | – | inactive |
| side-V | 3 | 65.7 | 257 | – | – | inactive |
| CG4716 | 1 | 146 | 158 | – | – | inactive |
| Hacd2 | 1 | 97.9 | 106 | – | – | inactive |
| ox | 1 | 74.2 | 190 | – | – | inactive |
| nopo | 1 | 159 | 92.4 | – | – | inactive |
| CG7394 | 1 | 98.7 | 85.6 | – | – | inactive |
| CG30369 | 1 | 109 | 164 | – | – | inactive |
| ERp60 | 1 | 151 | 143 | – | – | inactive |
| CG12935 | 1 | 193 | 106 | – | – | inactive |
| PolA1 | 1 | 96.1 | 126 | – | – | inactive |
| kibra | 1 | 135 | 160 | – | – | inactive |
| kibra | 2 | 140 | 157 | – | – | inactive |
| kibra | 3 | 103 | 110 | – | – | inactive |
| CG10301 | 1 | 165 | 129 | – | – | inactive |
| CG5254 | 1 | 85.2 | 98.5 | – | – | inactive |
| Ccm3 | 1 | 128 | 125 | – | – | inactive |
| CG9395 | 1 | 76.1 | 124 | – | – | inactive |
| GluRIIC | 1 | 142 | 202 | – | – | inactive |
| CG9886 | 1 | 82.3 | 179 | – | – | inactive |
| Cyp313a5 | 1 | 113 | 98.2 | – | – | inactive |
| Sirt2 | 1 | 198 | 166 | – | – | inactive |
| CG32829 | 1 | 65.6 | 130 | 7732 | 170 | inactive |
| CG32829 | 2 | 82 | 115 | – | – | inactive |
| sut2 | 1 | 229 | 242 | – | – | inactive |
| Ir25a | 1 | 189 | 123 | – | – | inactive |
| mRpS10 | 1 | 107 | 150 | – | – | inactive |
| CG31706 | 1 | 99.8 | 165 | – | – | inactive |
| CG7639 | 1 | 159 | 206 | – | – | inactive |
